Converted amounts (≈) assume the structure as drawn.
Tested on: Bacillus subtilis
Experiment: Antibacterial activity against Bacillus subtilis 1A754 by agar diffusion assay
Format: functional

Which MIC does the source give for `CN[C@H](CC(C)C)C(=O)N[C@H]1C(=O)N[C@@H](CC(N)=O)C(=O)N[C@H]2C(=O)N[C@H]3C(=O)N[C@H](C(=O)N[C@H](C(=O)O)c4cc(O)cc(O)c4-c4cc3ccc4O)[C@H](O)c3ccc(c(Cl)c3)Oc3cc2cc(c3O[C@@H]2O[C@H](CO)[C@@H](O)[C@H](O)[C@H]2O[C@H]2C[C@](C)(N)[C@H](O)[C@H](C)O2)Oc2ccc(cc2Cl)[C@H]1O` [VANCOMYCIN] here?
The MIC was 0.5 mg/L (≈ 0.345 µM).

From ChEMBL document CHEMBL1156892, “Synthesis and in vitro evaluation of bisphosphonated glycopeptide prodrugs for the treatment of osteomyelitis” (Bioorg Med Chem Lett, 2010)
